{"source": "paper PMC6478823", "about": "“A suite of phenotypic assays to ensure pipeline diversity when prioritizing drug-like Cryptosporidium growth inhibitors” (Nature Communications, 2019)", "key": {"[1]": {"tested_on": "C. parvum", "test": "48 h Cryptosporidium growth inhibition assay", "type": "cell-based", "settings": "read-out: Regular 3 to 48 h assay in vitro EC90; C. parvum in HCT-8 cells; compound added 3 h post-infection, read at 48 h", "text": "As a first step in developing specific Cryptosporidium mode of action assays, we conducted a series of light microscopy time-lapse and transmission electron microscopy (TEM) time course experiments in order to precisely define C. parvum development within the HCT-8 cell culture system. […] This synchronicity was exploited by modifying a previously developed high-content microscopy assay. These assay modifications enabled the evaluation of several key events within the life cycle: host cell invasion, intracellular replication, host cell egress and establishment of new parasitophorous vacuoles, and sexual differentiation. […]\nA modification of a previously reported immunofluorescence assay was used to determine the EC50 and EC90 of compounds[13]. […] A Nikon Eclipse Ti2000 epifluorescence microscope with an automated stage was programmed using NIS-Elements Advanced Research software (Nikon, USA) to focus on the center of each well and take a 3 × 3 or 6 × 6 composite image using an EXi blue fluorescence microscopy camera (QImaging, Canada) with a 20 × objective (NA = 0.45). Nuclei and parasite images were separately exported as.tif files and analyzed using macros developed on the ImageJ platform (National Institutes of Health)[13]."}, "[2]": {"tested_on": "C. parvum", "type": "cell-based, Cryptosporidium parvum", "settings": "compound at EC90", "description": "The first step in infection is host cell invasion, which involves a complex process encompassing oocyst excystation, parasite motility, adhesion, and parasitophorous vacuole formation (Fig. 2a). Our strategy to assay for compounds affecting invasion was simply to expose C. parvum to compounds immediately after triggering excystation and throughout the invasion process, and then enumerate the parasite vacuoles after 3 h, prior to allowing the parasites to replicate (summarized in Fig. 2b).\nFig. 2 Invasion Assay. a Overview of life cycle stage investigated during the invasion assay. Representative TEM images of a C. parvum oocyst and HCT-8 cell shortly after infection (Scale bar = 500 nm). b Schematic of experimental design. […] Each point represents the mean and SD of at least two biological replicates with four technical replicates per experiment.\nC. parvum invasion inhibition was measured by modifying the 48 h growth inhibition assay described above. […] In parallel, Iowa strain oocysts were excysted. […] Assay plates were incubated at 37 °C and 5% CO2 for 3 h."}, "[3]": {"tested_on": "C. parvum", "test": "DNA replication assay (EdU incorporation)", "type": "cell-based, Cryptosporidium parvum", "settings": "compound at EC90", "text": "Following cell invasion, Cryptosporidium trophozoites grow and multiply to give rise to multinucleated type I meronts (Fig. 3a). The thymidine analog 5-ethynyl-2′-deoxyuridine (EdU) is efficiently incorporated into newly synthesized DNA, and can be detected using click chemistry. We used EdU to measure parasite intracellular DNA replication, as a surrogate for the more complex phenotype of intracellular growth and division. The approach for differentially labeling newly synthesized parasite DNA compared to host cell DNA was to take advantage of the fact that C. parvum replicates more quickly than the nearly confluent host cells. Thus, by adding EdU shortly before egress, it was possible to preferentially label replicating parasites (Fig. 3b, c). DNA staining with Hoechst labeled all of the host and parasite DNA, making it challenging to visualize and quantify parasite DNA. A simple DNA stain would also not distinguish pre-existing DNA from newly synthesized DNA (Fig. 3c). In contrast, EdU labeling only occurred with incorporation into newly synthesized DNA. Incorporated EdU was then easily stained for immunofluorescence and labeled parasites were quantified using high-content microscopy and an NIH ImageJ macro (Fig. 3c, DMSO condition). The […] hydroxyurea (10 mM), a known inhibitor of DNA replication, was used as a positive control for assay validation. […]\nConfluent HCT-8 cell monolayers in glass bottom plates were infected with C. parvum, and compounds were added at EC90 following invasion. […] Arrows indicate selected parasites with EdU-labeled DNA. d Quantification of EdU incorporation. […]\nAfter incubation of cells with EdU for 2 h, cells were washed 3 times with PBS-D-gal and then fixed with PBS containing 4% PFA. […] Cells were then imaged by focusing on parasites (note that the host cell nuclei are in a different focal plane) using a 40 × dry objective (0.7 NA) and EdU, and lectin numbers quantified using ImageJ software and the custom macro in Supplementary Method 1."}, "[4]": {"tested_on": "C. parvum DMC1 expression", "test": "Sexual differentiation assay (DMC1 expression)", "type": "cell-based, Cryptosporidium parvum", "settings": "compound at asexual EC90, 48-72 h", "text": "We utilized DMC1 as a marker of C. parvum sexual development, and used the anti-DMC1 monoclonal antibody to develop a moderate-throughput high-content microscopy assay for characterizing anticryptosporidial compounds (Fig. 6a). […] Therefore, in order to enable numerical comparison of the ability of compounds to block sexual development with moderate throughput, we adopted a strategy of reporting the percent inhibition of DMC1 expression by the previously determined EC90 of each compound in the standard asexual development assay (Fig. 6c and Supplementary Table 2).\nFig. 6 Assay to measure asexual-to-sexual-stage conversion. a Schematic of the experimental approach. […] For b and c the mean and SD combined from at least two biological replicates with four technical replicates per experiment are shown. […] At given time points post-infection, infected cells were washed 3 times with PBS containing 111 mM of D-galactose, fixed for 15 min at room temperature with 4% paraformaldehyde in PBS, and permeabilized with 0.25% triton X-100 in PBS for 10 min at 37 °C. […] Lectin positive cells in focus were first counted, followed by DMC1.\nFor compound dose-response studies, the same assay was performed in 384-well plates and imaged using a 20 × dry objective (NA = 0.45). […] Images were analyzed using ImageJ software and the custom macro provided in Supplementary Method 2."}}, "data": [{"smiles": "CC(C)n1nc(-c2cc3cc(O)ccc3[nH]2)c2c(N)ncnc21", "note": "[Torkinib]", "values": [{"measurement": "EC90", "setting": "[1]", "value": 360, "unit": "nM"}, {"measurement": "Invasion Assay: Mean % Inhibition (parasites), Average", "setting": "[2]; average of replicates", "value": -21.41, "unit": "%"}, {"measurement": "Invasion Assay: Mean % Inhibition (parasites), Replicate 1a", "setting": "[2]; single biological replicate 1", "value": -31, "unit": "%"}, {"measurement": "Invasion Assay: Mean % Inhibition (parasites), Replicate 2a", "setting": "[2]; single biological replicate 2", "value": -11, "unit": "%"}, {"measurement": "DNA Synthesis Assay: Mean % Inhibition of EdU-labeling (normalized to parasite numbers), Average", "setting": "[3]; average of replicates", "value": -16.16, "unit": "%"}, {"measurement": "DNA Synthesis Assay: Mean % Inhibition of EdU-labeling (normalized to parasite numbers), Replicate 2", "setting": "[3]; single replicate 2", "value": -50.42, "unit": "%"}, {"measurement": "DNA Synthesis Assay: Mean % Inhibition of EdU-labeling (normalized to parasite numbers), Replicate 3", "setting": "[3]; single replicate 3", "value": -8.92, "unit": "%"}, {"measurement": "Asexual to sexual differentiation: Mean % DMC1 inhibition (normalized to host nuclei), Replicate 1a", "setting": "[4]; single replicate 1", "value": 5.76, "unit": "%"}, {"measurement": "Asexual to sexual differentiation: Mean % DMC1 inhibition (normalized to host nuclei), Replicate 2a", "setting": "[4]; single replicate 2", "value": 16.61, "unit": "%"}]}]}
